The test system of this data set is mSWI/SNF complexes. Nature of the data set: mSWI/SNF complex purification with HA-tagged baits and mass spectrometry (peptide counts). Also noted: species or system human. Particulars: 293_HA-BRD7: HA-BRD7 bait purification; for Total: total peptide count per co-purified protein; for Unique: unique peptide count per co-purified protein.

B1: P4HA1 (protein, UniProt P13674 18-534, looked up)
Prolyl 4-hydroxylase subunit …: HPGFFTSIGQMTDLIHTEKDLVTSLKDYIKAEEDKLEQIKKWAEKLDRLTSTATKDPEGFVGHPVNAFKLMKRLNTEWSELENLVLKDMSDGFISNLTIQRQYFPNDEDQVGAAKALLRLQDTYNLDTDTISKGNLPGVKHKSFLTAEDCFELGKVAYTEADYYHTELWMEQALRQLDEGEISTIDKVSVLDYLSYAVYQQGDLDKALLLTKKLLELDPEHQRANGNLKYFEYIMAKEKDVNKSASDDQSDQKTTPKKKGVAVDYLPERQKYEMLCRGEGIKMTPRRQKKLFCRYHDGNRNPKFILAPAKQEDEWDKPRIIRFHDIISDAEIEIVKDLAKPRLRRATISNPITGDLETVHYRISKSAWLSGYENPVVSRINMRIQDLTGLDVSTAEELQVANYGVGGQYEPHFDFARKDEPDAFKELGTGNRIATWLFYMSDVSAGGATVFPEVGASVWPKKGTAVFWYNLFASGEGDYSTRHAACPVLVGNKWVSNKWLHERGQEFRRPCTLSELE
In turn, B1 had a Total of 10 and a Unique of 9.

B2: HP1BP3 (protein, UniProt Q5SSJ5 2-553, looked up)
Heterochromatin protein …: ATDTSQGELVHPKALPLIVGAQLIHADKLGEKVEDSTMPIRRTVNSTRETPPKSKLAEGEEEKPEPDISSEESVSTVEEQENETPPATSSEAEQPKGEPENEEKEENKSSEETKKDEKDQSKEKEKKVKKTIPSWATLSASQLARAQKQTPMASSPRPKMDAILTEAIKACFQKSGASVVAIRKYIIHKYPSLELERRGYLLKQALKRELNRGVIKQVKGKGASGSFVVVQKSRKTPQKSRNRKNRSSAVDPEPQVKLEDVLPLAFTRLCEPKEASYSLIRKYVSQYYPKLRVDIRPQLLKNALQRAVERGQLEQITGKGASGTFQLKKSGEKPLLGGSLMEYAILSAIAAMNEPKTCSTTALKKYVLENHPGTNSNYQMHLLKKTLQKCEKNGWMEQISGKGFSGTFQLCFPYYPSPGVLFPKKEPDDSRDEDEDEDESSEEDSEDEEPPPKRRLQKKTPAKSPGKAASVKQRGSKPAPKVSAAQRGKARPLPKKAPPKAKTPAKKTRPSSTVIKKPSGGSSKKPATSARKEVKLPGKGKSTMKKSFRVKK
B2: the Total worked out at 9 and the Unique is given as 9.

B3: MDH2 (protein, UniProt P40926 25-338, looked up)
Malate dehydrogenase, …: AKVAVLGASGGIGQPLSLLLKNSPLVSRLTLYDIAHTPGVAADLSHIETKAAVKGYLGPEQLPDCLKGCDVVVIPAGVPRKPGMTRDDLFNTNATIVATLTAACAQHCPEAMICVIANPVNSTIPITAEVFKKHGVYNPNKIFGVTTLDIVRANTFVAELKGLDPARVNVPVIGGHAGKTIIPLISQCTPKVDFPQDQLTALTGRIQEAGTEVVKAKAGAGSATLSMAYAGARFVFSLVDAMNGKEGVVECSFVKSQETECTYFSTPLLLGKKGIEKNLGIGKVSSFEEKMISDAIPELKASIKKGEDFVKTLK
Turning to B3, the Total was found to be 10 and the Unique stood at 9.

B4: VANGL1 (protein, UniProt Q8TAA9 1-524, looked up)
Vang-like protein 1: MDTESTYSGYSYYSSHSKKSHRQGERTRERHKSPRNKDGRGSEKSVTIQPPTGEPLLGNDSTRTEEVQDDNWGETTTAITGTSEHSISQEDIARISKDMEDSVGLDCKRYLGLTVASFLGLLVFLTPIAFILLPPILWRDELEPCGTICEGLFISMAFKLLILLIGTWALFFRKRRADMPRVFVFRALLLVLIFLFVVSYWLFYGVRILDSRDRNYQGIVQYAVSLVDALLFIHYLAIVLLELRQLQPMFTLQVVRSTDGESRFYSLGHLSIQRAALVVLENYYKDFTIYNPNLLTASKFRAAKHMAGLKVYNVDGPSNNATGQSRAMIAAAARRRDSSHNELYYEEAEHERRVKKRKARLVVAVEEAFIHIQRLQAEEQQKAPGEVMDPREAAQAIFPSMARALQKYLRITRQQNYHSMESILQHLAFCITNGMTPKAFLERYLSAGPTLQYDKDRWLSTQWRLVSDEAVTNGLRDGIVFVLKCLDFSLVVNVKKIPFIILSEEFIDPKSHKFVLRLQSETSV
Turning to B4, the Total is listed as 9 and the Unique was found to be 9.

B5: C1QBP (protein, UniProt Q07021 74-282, looked up)
Complement component 1 Q …: LHTDGDKAFVDFLSDEIKEERKIQKHKTLPKMSGGWELELNGTEAKLVRKVAGEKITVTFNINNSIPPTFDGEEEPSQGQKVEEQEPELTSTPNFVVEVIKNDDGKKALVLDCHYPEDEVGQEDEAESDIFSIREVSFQSTGESEWKDTNYTLNTDSLDWALYDHLMDFLADRGVDNTFADELVELSTALEHQEYITFLEDLKSFVKSQ
With B5, the Total was determined as 11 and the Unique is given as 9.
